Assay results from paper PMC11662661.

Tested on: Ml5 (Mesorhizobium loti)
Assay: EMSA
Details: recombinant protein

Row | Sequence | binding result (5 pmol DNA, letters put together from the description) | binding result (preferred over NS)
1 | AATTTAGAATGAAGTTATATTCAATATAAAAGTAGAATTTTGAAAATCGCTAATTATGAT (double strand) [babR60] | binds | 
2 | ATGAAGTTATATTCAATATAAAAGTAGAAT (double strand) [babR30] |  | binds

For at least one entry, the source does not settle the construct or the ends of the probe. At least one verdict was read from the data and is not stated in words by the source.
